# Laboratory results as given in PubChem BioAssay AID1688 (National Center for Advancing Translational Sciences (NCATS), 2009).
# About 2,400 (1.1%) of roughly 220,000 compounds were called active. This list was built around the results that the source calls inconclusive (neither active nor inactive); the mix of calls is not that of the screen. The call rests on the fitted dose curve; in most records, active means well fitted inhibition curve with a large enough effect; inconclusive means small, poorly fitted or top-dose-only effect, or effect the other way; inactive means no such curve, though single readings can be large or run the other way. Potencies beside an inconclusive call are fits to weak or partial responses and may not hold up. Some compounds were tested as several samples or in several runs, with calls that do not always agree.
# Experiment: qHTS Multiplex Assay to Identify Dual Action Probes in a Cell Model of Huntington: Aggregate Formation (GFP); further: nearly all actives have a fitted effect of over 60% in size
# Settings: PC12 HttQ103-GFP aggregates, Acumen cytometry, 40 h; activity change, negative = inhibition: at 46.1 µM (top of the series) unless noted
# Procedure, shortened: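 Read-out: GFP aggregate count by laser scanning cytometer (488 nm excitation, 500-530 nm emission, 1–25 µm objects >6 SD above background). Cells: PC12, inducible HTTex1-Q103-GFP, 100 nM tebufenozide; compounds titrated.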
# On the % scale 0 is the no-effect control and ±100 the full control effect; potency means the concentration at half of the fitted maximal effect.
Compound,Potency,"activity change, negative = inhibition"
O=C1c2ccccc2C(=O)N1CC#CCN1CCN(C2CCCCC2)CC1,"inconclusive: 3.55 µM [activator, partial curve]",–
S=C(Nc1ccc(Cl)cc1)Nc1cccc2cnccc12,"inconclusive: 2.82 µM [inhibitor, full curve]",–
Cc1cc(-c2nnc(SCC(=O)Nc3ccccc3C(F)(F)F)o2)c(C)n1-c1ccccc1,"inconclusive: 31.6 µM [inhibitor, single point]",–
CC(=O)c1ccc2c(c1)Cc1cc(C(C)=O)ccc1-2,–,inactive: 21.1%
COc1ccc(NC(=O)CSc2nc3[nH]ncc3c(=O)n2-c2ccccc2C)cc1OC,"inconclusive: 12.6 µM [activator, partial curve, poor fit]",–
O=C(CCCCCNC(=O)c1ccccc1)N/N=C/c1ccco1,–,inactive: 9.43%
CCc1ccccc1N(CC(=O)O)S(C)(=O)=O,"inconclusive: 0.562 µM [activator, partial curve, poor fit]",–
Cc1ccccc1CN1CCc2c(OCC(=O)N3CCCc4ccccc43)cccc2C1=O,"inconclusive: 35.5 µM [inhibitor, single point]",–
NC1=NC(=O)C(Cc2ccccc2)S1 (configuration not stated),–,inactive: 9.01% [at 9.22 µM]
COc1cccc(/C=N/NC(=O)CN2CC(c3ccccc3)CC2=O)c1O (configuration not stated),active: 3.55 µM,–
CCN(CC)c1ccc2cc(-c3nc4ccccc4[nH]3)c(=O)oc2c1,active: 0.316 µM,–
Cc1ccc(C2CC(c3ccccc3)=NN2C(=S)Nc2ccccc2)o1 (configuration not stated),"inconclusive: 35.5 µM [inhibitor, single point]",–
CCOc1cccc(NC(=O)CC#N)c1,active: 1.78 µM,–
O=C(NNS(=O)(=O)c1ccc(F)cc1)c1sccc1-n1cccc1,–,inactive: 0.429%
C/C=C(/C)C(=O)O[C@@H]1c2c(ccc3ccc(=O)oc23)OC(C)(C)[C@@H]1OC(=O)/C(C)=C\C,"inconclusive: 35.5 µM [inhibitor, single point]",–
COc1cc2c(cc1NC(=O)CN(C)Cc1nc3ccccc3c(=O)[nH]1)oc1ccccc12,"inconclusive: 3.16 µM [activator, full curve, poor fit]",–
Cc1ccccc1NC(=O)N1CCCC(c2nc(-c3ccc(C(C)C)cc3)no2)C1 (configuration not stated),"inconclusive: 14.1 µM [inhibitor, single point]",–
O=C(CCn1c(=O)oc2ccccc21)Nc1ccon1,"inconclusive: 22.4 µM [inhibitor, partial curve]",–
Cc1ccccc1OCC(O)Cn1c(NCc2ccco2)nc2c1c(=O)n(C)c(=O)n2C (configuration not stated),"inconclusive: 22.4 µM [inhibitor, single point]",–
Cc1ccc(CNC(=O)COC(=O)c2ccc(S(=O)(=O)N(C)C)cc2)cc1,–,inactive: 3.7%
Cc1cc(C)c2c(N)c(-c3nc4ccccc4[nH]3)sc2n1,"inconclusive: 31.6 µM [activator, single point]",–
O=S1(=O)Nc2c(ccc3cccnc23)-c2ccccc21,"inconclusive: 1.58 µM [inhibitor, full curve]",–
O=C(O)CCCCCNC(=O)Cn1nnc2ccccc2c1=O,–,inactive: -15.4% [at 9.22 µM]
O=C1C(Nc2ccccc2)=C(N2CCCCC2)C(=O)c2ccccc21,"inconclusive: 7.08 µM [inhibitor, partial curve]",–

# Exported with bars between the fields: part of the list above
Compound | Potency | activity change, negative = inhibition
CCc1ccccc1N(CC(=O)O)S(C)(=O)=O | inconclusive: 0.562 µM [activator, partial curve, poor fit] | –
Cc1ccccc1CN1CCc2c(OCC(=O)N3CCCc4ccccc43)cccc2C1=O | inconclusive: 35.5 µM [inhibitor, single point] | –
NC1=NC(=O)C(Cc2ccccc2)S1 (configuration not stated) | – | inactive: 9.01% [at 9.22 µM]
COc1cccc(/C=N/NC(=O)CN2CC(c3ccccc3)CC2=O)c1O (configuration not stated) | active: 3.55 µM | –
CCN(CC)c1ccc2cc(-c3nc4ccccc4[nH]3)c(=O)oc2c1 | active: 0.316 µM | –
Cc1ccc(C2CC(c3ccccc3)=NN2C(=S)Nc2ccccc2)o1 (configuration not stated) | inconclusive: 35.5 µM [inhibitor, single point] | –
CCOc1cccc(NC(=O)CC#N)c1 | active: 1.78 µM | –
O=C(NNS(=O)(=O)c1ccc(F)cc1)c1sccc1-n1cccc1 | – | inactive: 0.429%
C/C=C(/C)C(=O)O[C@@H]1c2c(ccc3ccc(=O)oc23)OC(C)(C)[C@@H]1OC(=O)/C(C)=C\C | inconclusive: 35.5 µM [inhibitor, single point] | –
COc1cc2c(cc1NC(=O)CN(C)Cc1nc3ccccc3c(=O)[nH]1)oc1ccccc12 | inconclusive: 3.16 µM [activator, full curve, poor fit] | –
Cc1ccccc1NC(=O)N1CCCC(c2nc(-c3ccc(C(C)C)cc3)no2)C1 (configuration not stated) | inconclusive: 14.1 µM [inhibitor, single point] | –

# Next part.

Compound,Potency,"activity change, negative = inhibition"
CC(=O)c1cccc(Nc2nc(-c3cccc([N+](=O)[O-])c3)cs2)c1,"inconclusive: 25.1 µM [inhibitor, single point]",–
Cc1c(NC(=O)CN2C(=O)NC(C)(c3ccccc3Cl)C2=O)c(=O)n(-c2ccccc2)n1C (configuration not stated),"inconclusive: 10 µM [activator, partial curve]",–
Cc1cc(N2CCCC2)n2nc(C)nc2n1,–,inactive: -5.88%
COc1cc(NCCCC(C)N)c2ncccc2c1 (configuration not stated),active: 17.8 µM,–
COC(=O)c1ccsc1NC(=O)CN1C(=O)CCC1=O,–,inactive: -1.29% [at 9.22 µM]
O=C(CCN1CCN(c2ccccc2)CC1)N/N=C/c1ccccc1O,active: 12.6 µM,–
CCCCC[n+]1ccn(C2=C([O-])c3ccccc3C(=O)/C2=N\S(=O)(=O)c2ccc(Br)cc2)c1,–,inactive: 2.29% [at 9.22 µM]
Cc1nn(Cc2ccc(Cl)cc2)c(C)c1NC(=O)c1noc2c1CCc1ccccc1-2,"inconclusive: 35.5 µM [inhibitor, single point]",–
O=C(COc1ccc(Br)cc1Cl)NC(=O)Nc1ccc2c(c1)OCCO2,–,inactive: 33.4%
COc1ccccc1N1CCN(/N=C/c2c(C)nn(-c3ccccc3)c2C)CC1,–,inactive: -14.1%
Cc1ccc(C(=O)CSc2nnc(COc3cc(C)cc(C)c3)o2)cc1,–,inactive: -6.03%
CC(C)Oc1ccc(CNC(=O)Cn2c(=O)oc3ccccc32)cc1,"inconclusive: 35.5 µM [activator, single point]",–
O=C(Cc1ccccc1)Nc1ccc(CN2CCOCC2)cc1,"inconclusive: 2 µM [activator, partial curve]",–
CS(=O)(=O)NNC(=O)CN1C(=O)C2C3C=CC(C3)C2C1=O (configuration not stated),active: 0.0316 µM,–
COCCCN=C1NN=C(c2cc(C)n(-c3ccccc3F)c2C)CS1,"inconclusive: 31.6 µM [inhibitor, single point]",–
C=CCn1c(=S)[nH]c2scc(-c3ccc(C)o3)c2c1=O,active: 22.4 µM,–
O=C(O)c1ccccc1C(=O)NCCc1c(C(=O)O)[nH]c2ccc(Cl)cc12,–,inactive: -18.1% [at 9.22 µM]
N#C/C(=C/c1cc[nH]c1)C(N)=S,–,inactive: -15.2%
O=C(O)C1CCC(Cn2c(SCc3cc(=O)n4cc(Br)ccc4n3)nc3ccsc3c2=O)CC1 (configuration not stated),"inconclusive: 5.62 µM [activator, full curve]",–
COc1ccc(C=C(c2nc3ccccc3s2)c2nc3ccccc3s2)cc1O,"inconclusive: 3.16 µM [activator, single point]",–
COC(=O)c1ccc2nc(Nc3nc4ccc(F)cc4s3)sc2c1,"inconclusive: 11.2 µM [inhibitor, partial curve]",–
Cc1c(CC=C(Cl)Cl)c(=O)[nH]c2c(C)cccc12,–,inactive: -13.9%
CCCn1c(NC(=O)C2CCN(S(=O)(=O)c3cccs3)CC2)nc2ccccc21,"inconclusive: 35.5 µM [inhibitor, single point]",–
